PubChem BioAssay AID1159578, Peter MacCallum Cancer Centre, 2015
Shown is a random part of about 18,000 reagents. About 1,030 of all reagents (5.7%) were called active. 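Inactive calls also include pools with fewer than 3300 nuclei, whose migration was not assessed.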 Raw values are not corrected between plates. A number with no mark means an inactive call.

Assay: 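Genome-wide hunt for genes controlling movement of lymphatic endothelial cells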 (primary screen)
Cells: human lymphatic endothelial cells
Knock-down reagent: siRNA pool against human genes, 40 nM
Timing: 48 h after transfection
Measurement: 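Cells stained with dye and imaged after a scratch; covered wound area and nuclei counted, duplicates averaged, migration set against mock wells and turned into a robust z-score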
Scale: migration robust z-score: higher = faster migration into the scratch; migration relative to mock: higher = more scratch area covered than mock; nuclei per well: higher = more cells in the well
Active means: 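Pools averaging fewer than 3300 nuclei are never called; remaining pools count as changed when migration robust z lies outside -2 to 2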
Calls: active = migration changed; inactive = no migration change, or too few cells

| migration robust z-score | migration class with cell-count check | migration relative to mock | nuclei per well, duplicate mean | gene symbol |
| --- | --- | --- | --- | --- |
| -0.56 | migration z between -2 and 2; enough cells | 0.74 | 4148 | FERMT1 (FERM domain containing kindlin 1) |
| -0.7 | migration z between -2 and 2; enough cells | 0.67 | 6569 | CPA1 (carboxypeptidase A1) |
| 1.07 | migration z between -2 and 2; enough cells | 1.17 | 6406 | SERINC4 (serine incorporator 4) |
| -0.62 | migration z between -2 and 2; enough cells | 0.68 | 5417 | FBXO43 (F-box protein 43) |
| -0.91 | migration z between -2 and 2; enough cells | 0.63 | 5038 | ZNF547 (zinc finger protein 547) |
| -3.15 (active) | migration z below -2; enough cells | 0.07 | 6402 | SPATS2L (spermatogenesis associated serine rich 2 like) |
| 0.16 | migration z between -2 and 2; enough cells | 0.84 | 5341 | SUPT5H (SPT5 homolog, DSIF elongation factor subunit) |
| -2.18 | under 3300 nuclei; migration not judged | 0.38 | 2590 | ENGASE (endo-beta-N-acetylglucosaminidase) |
| 0.26 | migration z between -2 and 2; enough cells | 0.86 | 5390 | OPN1LW (opsin 1, long wave sensitive) |
| -1.79 | migration z between -2 and 2; enough cells | 0.46 | 4766 | NQO1 (NAD(P)H quinone dehydrogenase 1) |
| -0.94 | migration z between -2 and 2; enough cells | 0.62 | 4994 | SH3BGR (SH3 domain binding glutamate rich protein) |
| -0.12 | migration z between -2 and 2; enough cells | 0.86 | 5222 | SLC35F3 |
| -0.42 | migration z between -2 and 2; enough cells | 0.77 | 5038 | HERPUD1 |
| -0.1 | migration z between -2 and 2; enough cells | 0.86 | 5943 | IL36B (interleukin 36 beta) |
| -2.96 (active) | migration z below -2; enough cells | 0.24 | 4091 | SLC22A25 |
| 0.29 | migration z between -2 and 2; enough cells | 0.96 | 6244 | RUMY4 (RUMY family member 4) |
| 0.67 | migration z between -2 and 2; enough cells | 0.94 | 5414 | ATP6V1A (ATPase H+ transporting V1 subunit A) |
| 0.61 | migration z between -2 and 2; enough cells | 1.04 | 5970 | MTCH1 |
| 0.26 | migration z between -2 and 2; enough cells | 0.86 | 5167 | OLAH (oleoyl-ACP hydrolase) |
| -1.9 | migration z between -2 and 2; enough cells | 0.4 | 5486 | MYBPHL (myosin binding protein H like) |
| 0.64 | migration z between -2 and 2; enough cells | 0.93 | 5406 | UGT2B15 (UDP glucuronosyltransferase family 2 member B15) |
| -3.04 | under 3300 nuclei; migration not judged | 0.22 | 2523 | B4GALT2 (beta-1,4-galactosyltransferase 2) |
| -1.46 | migration z between -2 and 2; enough cells | 0.51 | 6066 | TBC1D9B (TBC1 domain family member 9B) |
| 0.1 | migration z between -2 and 2; enough cells | 0.82 | 5066 | DZIP3 (DAZ interacting zinc finger protein 3) |
| 2.55 (active) | migration z above 2; enough cells | 1.55 | 6182 | SUMO2 (small ubiquitin like modifier 2) |
| -1.25 | migration z between -2 and 2; enough cells | 0.56 | 5069 | RPE65 (retinoid isomerohydrolase RPE65) |
| -0.15 | migration z between -2 and 2; enough cells | 0.77 | 5180 | SOX10 (SRY-box transcription factor 10) |
| -1.34 | migration z between -2 and 2; enough cells | 0.54 | 6382 | PAFAH2 (platelet activating factor acetylhydrolase 2) |
| 0.02 | migration z between -2 and 2; enough cells | 0.81 | 5868 | HSD17B2 (hydroxysteroid 17-beta dehydrogenase 2) |
| -0.02 | migration z between -2 and 2; enough cells | 0.88 | 6374 | RGL4 (ral guanine nucleotide dissociation stimulator like 4) |
| -1.14 | migration z between -2 and 2; enough cells | 0.59 | 5954 | KRTAP3-2 (keratin associated protein 3-2) |
| -0.31 | migration z between -2 and 2; enough cells | 0.74 | 6174 | GGCX (gamma-glutamyl carboxylase) |
| 0.5 | migration z between -2 and 2; enough cells | 1.02 | 6358 | GNG11 (G protein subunit gamma 11) |
| -0.35 | migration z between -2 and 2; enough cells | 0.8 | 6072 | AKR7L (aldo-keto reductase family 7 like (gene/pseudogene)) |
| 0.57 | migration z between -2 and 2; enough cells | 0.92 | 5448 | MOGAT3 (monoacylglycerol O-acyltransferase 3) |
| 1.03 | migration z between -2 and 2; enough cells | 1.15 | 5492 | SYT8 (synaptotagmin 8) |
| 0.24 | migration z between -2 and 2; enough cells | 0.94 | 7429 | EXOC7 (exocyst complex component 7) |
| -1.95 | migration z between -2 and 2; enough cells | 0.37 | 4702 | ZNF114 (zinc finger protein 114) |
| -1.09 | migration z between -2 and 2; enough cells | 0.6 | 6506 | CTRB1 (chymotrypsinogen B1) |
| -1.5 | under 3300 nuclei; migration not judged | 0.49 | 2557 | MCEMP1 (mast cell expressed membrane protein 1) |
| 0.94 | migration z between -2 and 2; enough cells | 1.13 | 4900 | MACIR (macrophage immunometabolism regulator) |
| -0.01 | migration z between -2 and 2; enough cells | 0.88 | 4994 | SLC51A |
| -0.16 | migration z between -2 and 2; enough cells | 0.84 | 5822 | ANKRD1 (ankyrin repeat domain 1) |
| -1.85 | migration z between -2 and 2; enough cells | 0.45 | 4986 | RHEB (Ras homolog, mTORC1 binding) |
| 0.43 | migration z between -2 and 2; enough cells | 1 | 6658 | IFT46 (intraflagellar transport 46) |
| -1.61 | migration z between -2 and 2; enough cells | 0.5 | 4740 | OTUB1 (OTU deubiquitinase, ubiquitin aldehyde binding 1) |
| -0.46 | migration z between -2 and 2; enough cells | 0.76 | 4764 | CCDC116 (coiled-coil domain containing 116) |
| 0.08 | under 3300 nuclei; migration not judged | 0.82 | 3170 | CALM3 (calmodulin 3) |
| -0.2 | migration z between -2 and 2; enough cells | 0.76 | 4450 | KLF7 (KLF transcription factor 7) |
| -0.34 | migration z between -2 and 2; enough cells | 0.8 | 5215 | PLAC1 (placenta associated 1) |
| 0.88 | migration z between -2 and 2; enough cells | 1.12 | 6588 | TMEM216 (transmembrane protein 216) |
| -0.96 | migration z between -2 and 2; enough cells | 0.64 | 4464 | UCMA (upper zone of growth plate and cartilage matrix associated) |
| -0.04 | migration z between -2 and 2; enough cells | 0.88 | 4858 | PNRC1 (proline rich nuclear receptor coactivator 1) |
| -1.74 | migration z between -2 and 2; enough cells | 0.47 | 5537 | APOA4 (apolipoprotein A4) |
| 0.34 | migration z between -2 and 2; enough cells | 0.87 | 6426 | RNFT1 (ring finger protein, transmembrane 1) |
| 1.29 | migration z between -2 and 2; enough cells | 1.22 | 5268 | ARMC2 (armadillo repeat containing 2) |
| 0.83 | migration z between -2 and 2; enough cells | 0.96 | 4804 | HTR2A (5-hydroxytryptamine receptor 2A) |

Copied from the list:
For “migration relative to mock”, SUPT5H (SPT5 homolog, DSIF elongation factor subunit) shows 0.84
OPN1LW (opsin 1, long wave sensitive), migration class with cell-count check = migration z between -2 and 2; enough cells
Value of SLC35F3 in “migration class with cell-count check”: migration z between -2 and 2; enough cells
MCEMP1 (mast cell expressed membrane protein 1), migration robust z-score → -1.5
Under “nuclei per well, duplicate mean”, UGT2B15 (UDP glucuronosyltransferase family 2 member B15) is entered as 5406
EXOC7 (exocyst complex component 7), migration class with cell-count check → migration z between -2 and 2; enough cells
